These are yes or no findings as the source states them, for the method shown. In cells and extracts the contact can be indirect. Some entries that bind do so weakly or less than the wild type.
Columns and labels:
[1] = molecular target: β-arrestin1-GFP (human) (UniProt P49407); experiment: co-IP; COS-7 cells co-transfected, stimulated with MIF (200 ng/ml) for 1 h; lysis in 10 mM Tris-HCl pH 7.4, 150 mM NaCl, 1 mM EDTA, 1 mM EGTA, 1% Triton X-100 plus 0.5% NP-40; 2 µg antibody 30 min at 4°C, Protein A/G beads 60 min; western blot; reciprocal
[2] = molecular target: CD74-myc (human) (UniProt P04233); experiment: as above
[3] = molecular target: CD74-myc (human) (UniProt P04233); experiment: co-IP; COS-7 cells co-transfected with ARRB1-GFP and CD74-myc for 36 h, without MIF stimulation; same lysis and immunoprecipitation; western blot

Amino acid sequences for entries named in this document (tags omitted).
UniProt P49407: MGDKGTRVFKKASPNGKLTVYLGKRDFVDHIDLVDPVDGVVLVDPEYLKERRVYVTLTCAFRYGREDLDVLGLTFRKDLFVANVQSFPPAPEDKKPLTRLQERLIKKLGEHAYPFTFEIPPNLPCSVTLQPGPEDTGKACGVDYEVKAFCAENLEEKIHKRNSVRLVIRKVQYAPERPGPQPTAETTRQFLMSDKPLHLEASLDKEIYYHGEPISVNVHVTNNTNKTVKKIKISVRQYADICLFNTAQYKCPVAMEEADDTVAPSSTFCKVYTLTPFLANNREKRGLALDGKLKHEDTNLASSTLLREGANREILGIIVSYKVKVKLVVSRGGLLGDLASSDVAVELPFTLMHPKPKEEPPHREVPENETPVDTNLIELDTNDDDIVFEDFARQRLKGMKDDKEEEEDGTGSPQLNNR
UniProt P04233: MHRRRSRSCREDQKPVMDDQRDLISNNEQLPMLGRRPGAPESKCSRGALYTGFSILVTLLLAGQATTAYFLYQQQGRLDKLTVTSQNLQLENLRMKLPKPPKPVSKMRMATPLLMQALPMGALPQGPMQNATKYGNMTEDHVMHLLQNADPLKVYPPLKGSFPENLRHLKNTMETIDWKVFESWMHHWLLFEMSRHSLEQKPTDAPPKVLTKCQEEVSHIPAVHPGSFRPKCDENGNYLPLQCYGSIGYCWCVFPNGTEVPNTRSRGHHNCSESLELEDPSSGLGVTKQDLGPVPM

binding [1] | binding [2] | Substance | binding [3]
binds | – | CD74-myc (from UniProt P04233 1-296) (receptor) | –
– | binds | β-arrestin1-GFP (from UniProt P49407 1-418) | no binding (condition: cells without MIF stimulation)

From PMC3026819
